Values from PubChem BioAssay AID1224829 (NIAID, 2016).
The whole screen tested about 3,800 reagents; this is a part drawn at random. 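Calls cover raised and lowered translocation; gene median uses one vendor's three siRNAs; qiagen siRNAs acted more weakly than ambion siRNAs.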 Reagents against one gene are numbered here. Not all columns of the deposit are shown. No sequences are given here.

- Purpose: 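Follow-up of TLR4-NF-kappaB regulators using six separate siRNAs for each gene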 (follow-up of hits)
- System: mouse RAW264.7 G9 macrophage reporter cells
- Reagents: single siRNA against mouse genes, 100 nM
- Timing: 2 days of siRNA knock-down, then 40 min of LPS before fixing
- Conditions: LPS (Salmonella minnesota R595) at 10 ng/ml
- Measurement: 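Imaging of GFP-p65 after 40 min of LPS; nuclear over perinuclear ring intensity ratio, scaled to plate median and non-targeting control wells, given as z-score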
- Scale: p65 translocation z-score: higher = more nuclear NF-kappaB p65 after LPS
- Rule for the call: 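An siRNA is called active when the mean z-score of its two replicates is above 2 or below -2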
- Meaning of the calls: active = changed p65 translocation (either direction); inactive = no clear change

| target | reagent | siRNA vendor or control pool | p65 translocation z-score, replicate mean | p65 translocation z-score, replicate 1 | p65 translocation z-score, replicate 2 | call |
| --- | --- | --- | --- | --- | --- | --- |
| Or10g1b (GeneID 258268) | 1 | ambion single siRNA | -1.58 | -0.417 | -2.74 | inactive |
| Or10g1b (GeneID 258268) | 2 | ambion single siRNA | -1.93 | -1.93 | -1.94 | inactive |
| Or10g1b (GeneID 258268) | 3 | ambion single siRNA | -4.32 | -4.42 | -4.22 | active |
| Or10g1b (GeneID 258268) | 4 | qiagen single siRNA | -0.132 | -0.122 | -0.142 | inactive |
| Or10g1b (GeneID 258268) | 5 | qiagen single siRNA | 2.01 | 1.75 | 2.27 | active |
| Or10g1b (GeneID 258268) | 6 | qiagen single siRNA | 0.655 | 1.33 | -0.0174 | inactive |
| Hdac4 (GeneID 208727) | 1 | ambion single siRNA | -3.5 | -3.34 | -3.66 | active |
| Hdac4 (GeneID 208727) | 2 | ambion single siRNA | -4.04 | -4.04 | – | active |
| Hdac4 (GeneID 208727) | 3 | ambion single siRNA | -6.83 | -8.19 | -5.48 | active |
| Hdac4 (GeneID 208727) | 4 | qiagen single siRNA | -2.43 | -1.47 | -3.4 | active |
| Hdac4 (GeneID 208727) | 5 | qiagen single siRNA | -1.11 | -1.11 | – | inactive |
| Hdac4 (GeneID 208727) | 6 | qiagen single siRNA | -4.31 | -4.08 | -4.55 | active |

Next part; the last 3 above are carried over.
| target | reagent | siRNA vendor or control pool | p65 translocation z-score, replicate mean | p65 translocation z-score, replicate 1 | p65 translocation z-score, replicate 2 | call |
| --- | --- | --- | --- | --- | --- | --- |
| Hdac4 (GeneID 208727) | 4 | qiagen single siRNA | -2.43 | -1.47 | -3.4 | active |
| Hdac4 (GeneID 208727) | 5 | qiagen single siRNA | -1.11 | -1.11 | – | inactive |
| Hdac4 (GeneID 208727) | 6 | qiagen single siRNA | -4.31 | -4.08 | -4.55 | active |
| Tnfrsf12a (GeneID 27279) | 1 | ambion single siRNA | -1.72 | -0.972 | -2.46 | inactive |
| Tnfrsf12a (GeneID 27279) | 2 | ambion single siRNA | -2.55 | -3.04 | -2.06 | active |
| Tnfrsf12a (GeneID 27279) | 3 | ambion single siRNA | -1.66 | -1.1 | -2.23 | inactive |
| Tnfrsf12a (GeneID 27279) | 4 | qiagen single siRNA | -4.46 | -4.46 | – | active |
| Tnfrsf12a (GeneID 27279) | 5 | qiagen single siRNA | -2.41 | -4.19 | -0.633 | active |
| Tnfrsf12a (GeneID 27279) | 6 | qiagen single siRNA | -2.71 | -2.99 | -2.42 | active |
| Gadd45g (GeneID 23882) | 1 | ambion single siRNA | -0.779 | -0.567 | -0.992 | inactive |
| Gadd45g (GeneID 23882) | 2 | ambion single siRNA | 0.614 | 0.911 | 0.318 | inactive |
| Gadd45g (GeneID 23882) | 3 | ambion single siRNA | -2.82 | -1.53 | -4.11 | active |
| Gadd45g (GeneID 23882) | 4 | qiagen single siRNA | 1.56 | 0.567 | 2.56 | inactive |
| Gadd45g (GeneID 23882) | 5 | qiagen single siRNA | -2.01 | -1.92 | -2.11 | active |
| Gadd45g (GeneID 23882) | 6 | qiagen single siRNA | 0.0485 | -0.109 | 0.207 | inactive |
